Measured values: patent US20250263499A1 (SHENGHE CHINA BIOPHARMACEUTICAL, published 2025)
No constants are given. Whether binding was seen depends on the method and setting. Some binding calls cover weakened binding; strength is not graded here.

Legend:
[1] = biological target: T1, CD24 on tumor cells (MCF7, SKOV3, HT55, huCD24-MDA-MB-231, CD24-SKOV3) (human) (UniProt P25063); assay: flow cytometry on MCF7 cells (MFI)
T1 sequence (looked up): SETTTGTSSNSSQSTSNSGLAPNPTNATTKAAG

[2] = biological target: T1, CD24 on tumor cells (MCF7, SKOV3, HT55, huCD24-MDA-MB-231, CD24-SKOV3) (human); assay: flow cytometry on huCD24-MDA-MB-231 cells (MFI)

binding [1]: binds | binding [2]: binds
B1: humanized antibody hu-02-L1H7 (antibody, human IgG1, kappa, V domains shown)
VH: EVQLQESGPGLVKPSQTLSLTCTVSGYSITSGYTWHWIRQFPGNKLEWIGHIQYTGNTKYNPSLESRITISRDTSKNQFSLKLSSVTAADTATYYCARGSTNSNDYWGQGTLVTVSS
VL: DIVMTQSPDSLAVSLGERATINCKSSQSLLYSNDQKNYLAWYQQKPGQPPKLLIYWASTRESGVPDRFSGSGSGTDFTLTISSLQAEDVAVYYCQQYFIYPLTFGGGTKLELKR
notes: Humanized from ms-02: light chain L1, heavy chain H7
